# In patent US8178077B2, “Drug development target protein and target gene, and method of screening” (Reverse Proteomics Research Institute Co., Ltd., priority 2004, dated 2012):
# Experiments:
# [1] = molecular target: T1, FLJ20589 clone-derived protein (human hippocalcin-like protein 1, VILIP-3) (Homo sapiens, UniProt P37235); test: SEC/MS interaction analysis (size exclusion spin column and mass analysis) with FLJ20589 clone-derived protein; assay type: binding
# T1 construct: A human full-length cDNA clone was expressed as a protein with an N-terminal His tag; His tag (N); made in house; host or cells: Escherichia coli BL21star(DE3)pLysS (pDEST17 Gateway expression plasmid)
# [2] = molecular target: T2, FLJ39196 clone-derived protein (human neurocalcin δ) (Homo sapiens, UniProt P61601); test: SEC/MS interaction analysis (size exclusion spin column and mass analysis) with FLJ39196 clone-derived protein; assay type: binding
# T2 construct: A human full-length cDNA clone was expressed as a protein with an N-terminal His tag; His tag (N); made in house; host or cells: Escherichia coli BL21star(DE3)pLysS (pDEST17 Gateway expression plasmid)
# Source text: To analyze the interactions between commonly used drugs and proteins expressed from human full-length cDNA clones while keeping both the proteins and the compounds in non-modified, non-immobilized state, size exclusion chromatography (SEC) and mass analysis were used in combination (FIGS. 1, 2). The specific procedures are shown below.
# The compound-protein mixture prepared in step 1 was subjected to chromatography using an SEC column, the compound and the protein were separated by SEC, and the compound that interacted with the bound compound or protein contained in the protein fraction was analyzed using a mass analyzer.
# Protein concentrations were measured using BCA Protein Assay (PIERCE), in consideration of the purity calculated by SDS-PAGE.
# Mass analysis was performed using LCQ DECA XP (Thermoelectron) or Q-TOFmicro (Micromass), equipped with an ESI probe. The LC pump used was Agilent 1100 (Yokogawa Analytical Systems), and the autosampler used was HTC-PAL (CTC Analytics) equipped with a cooling stacker.
# In the SEC method using 384-well spin columns, Unifilter 100 (Whatman), packed with 10 μL (dry volume) of Bio-Gel P6 (BIO-RAD) and swollen with milliQ water, was used as the SEC column. 13.3 μL of a protein-free reference standard or a 25 μM protein standard and 0.7 μL of a multiplied liquid comprising 25 μM of each pharmaceutical compound (5% DMSO aqueous solution) were mixed; 9 μL of this mixture was aliquoted into the SEC spin columns. The SEC spin column was mounted on an acetonitrile-aliquoted 384-well U-bottom plate and centrifuged; the SEC spin column filtrate, which is a protein fraction, was retrieved in 50% acetonitrile. The protein precipitate produced by the acetonitrile was removed via centrifugation and filtration for deproteinization; the resulting filtrate was concentrated by centrifugation and re-dissolved in 10 μL of 50% methanol to obtain a mass analysis sample. The mobile phase supplied to the mass analyzer was 0.1% formic acid/50% methanol solution in the positive ion mode, and 0.1% ammonia/50% methanol solution in the negative ion mode; these mobile phases were used at a flow rate of 40 μL/min. 2-μL of mass analysis samples were injected using an autosampler at 2-minute intervals; the mass spectral intensity of the compound was measured to obtain the spectral intensity of the pharmaceutical compound contained in the SEC spin column filtrate (protein fraction eluted from SEC).
# [3] = protein 0 μM (protein-free reference), compound 1 μM
# [4] = protein 0 μM (protein-free reference), compound 10 μM
# [5] = protein 0 μM (protein-free reference), compound 100 μM
# [6] = protein 0 μM (protein-free reference), compound 250 μM
# [7] = protein 23.75 μM, compound 1 μM
# [8] = protein 23.75 μM, compound 10 μM
# [9] = protein 23.75 μM, compound 100 μM
# [10] = protein 23.75 μM, compound 250 μM
# [11] = protein 47.5 μM, compound 10 μM
# [12] = protein 47.5 μM, compound 100 μM
# [13] = protein 47.5 μM, compound 250 μM
smiles,measurement,setting,value
CC(C)(C)CC(C)(C)c1ccc(OCCOCC[N+](C)(C)Cc2ccccc2)cc1 [Benzethonium],spectral intensity of the compound in the SEC spin column filtrate (protein fraction),[1]; [3],681042
same,spectral intensity of the compound in the SEC spin column filtrate (protein fraction),[1]; [4],536408
same,spectral intensity of the compound in the SEC spin column filtrate (protein fraction),[1]; [5],1019183
same,spectral intensity of the compound in the SEC spin column filtrate (protein fraction),[1]; [6],1894576
same,spectral intensity of the compound in the SEC spin column filtrate (protein fraction),[1]; [7],567621
same,spectral intensity of the compound in the SEC spin column filtrate (protein fraction),[1]; [8],13777320
same,spectral intensity of the compound in the SEC spin column filtrate (protein fraction),[1]; [9],732075554
same,spectral intensity of the compound in the SEC spin column filtrate (protein fraction),[1]; [10],363052655
same,spectral intensity of the compound in the SEC spin column filtrate (protein fraction),"[1]; protein 47.5 μM, compound 1 μM",179741
same,spectral intensity of the compound in the SEC spin column filtrate (protein fraction),[1]; [11],1125025
same,spectral intensity of the compound in the SEC spin column filtrate (protein fraction),[1]; [12],368271326
same,spectral intensity of the compound in the SEC spin column filtrate (protein fraction),[1]; [13],1844957985
same,spectral intensity of the compound in the SEC spin column filtrate (protein fraction),[2]; [3],7744717
same,spectral intensity of the compound in the SEC spin column filtrate (protein fraction),[2]; [4],5781630
same,spectral intensity of the compound in the SEC spin column filtrate (protein fraction),[2]; [5],110985750
same,spectral intensity of the compound in the SEC spin column filtrate (protein fraction),[2]; [6],3418189873
same,spectral intensity of the compound in the SEC spin column filtrate (protein fraction),[2]; [7],7361705
same,spectral intensity of the compound in the SEC spin column filtrate (protein fraction),[2]; [8],346972055
same,spectral intensity of the compound in the SEC spin column filtrate (protein fraction),[2]; [9],5864609237
same,spectral intensity of the compound in the SEC spin column filtrate (protein fraction),[2]; [10],6839519322
same,spectral intensity of the compound in the SEC spin column filtrate (protein fraction),"[2]; protein 47.5 μM, compound 1 μM",18097692
same,spectral intensity of the compound in the SEC spin column filtrate (protein fraction),[2]; [11],724595729
same,spectral intensity of the compound in the SEC spin column filtrate (protein fraction),[2]; [12],9268734340
same,spectral intensity of the compound in the SEC spin column filtrate (protein fraction),[2]; [13],14536894458
